The test system of this experiment is cell structure having a liver sinusoidal network produced using CMF (Example A). Briefly: Toxicity evaluation by ATP assay, cell structure of Example A (produced using CMF). Conditions: Homo sapiens, read-out: IC50 Example A.

Broadly, the IC50 is the midpoint of a concentration-inhibition curve.

As for `CCCCc1oc2ccccc2c1C(=O)c1cc(I)c(OCCN(CC)CC)c(I)c1` [Amiodarone], the IC50 was 14.1 µM.
